For test [1], the target named is Endogenous Usp12 (human (endogenous in LNCaP and VCaP)) (UniProt O75317). Briefly: co-IP; endogenous Usp12 immunoprecipitated from LNCaP cells; probed for Uaf-1 and WDR20 by immunoblotting; IgG as negative control.
Test [2] deals with Endogenous androgen receptor (human (endogenous in VCaP)) (UniProt P10275). Briefly: co-IP; VCaP cells cultured in full media or steroid depleted media for 96 h; endogenous AR immunoprecipitated with 1 ug anti-AR antibody or IgG control; immunoblotting. Background: In western blotting, separated proteins are transferred to a membrane and probed.
Test [3] deals with T1, HA-Flag-WDR20 (UniProt Q8TBZ3).
T1 sequence: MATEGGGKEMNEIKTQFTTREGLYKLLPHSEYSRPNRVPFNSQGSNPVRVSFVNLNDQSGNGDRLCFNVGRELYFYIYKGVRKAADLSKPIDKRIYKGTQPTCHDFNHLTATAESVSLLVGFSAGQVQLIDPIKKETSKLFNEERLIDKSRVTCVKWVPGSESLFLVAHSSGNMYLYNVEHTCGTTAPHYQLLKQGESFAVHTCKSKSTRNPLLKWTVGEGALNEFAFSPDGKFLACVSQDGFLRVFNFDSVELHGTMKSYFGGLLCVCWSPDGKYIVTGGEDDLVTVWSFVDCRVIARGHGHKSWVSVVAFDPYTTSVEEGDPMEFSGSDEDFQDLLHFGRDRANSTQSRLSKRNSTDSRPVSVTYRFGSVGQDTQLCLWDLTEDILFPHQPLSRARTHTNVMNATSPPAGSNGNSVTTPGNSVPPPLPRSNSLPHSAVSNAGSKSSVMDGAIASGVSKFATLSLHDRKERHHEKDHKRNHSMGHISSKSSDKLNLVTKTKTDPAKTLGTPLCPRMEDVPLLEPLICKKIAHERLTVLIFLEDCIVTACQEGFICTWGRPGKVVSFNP
Briefly: co-IP; cells (COS-7 by the legend, HEK293T by the text) transfected with pFlag-AR and pHA-Flag-WDR20, 48 h; immunoprecipitation for WDR20 or IgG control; immunoblotting.

The chains behind the UniProt entries cited, without tags or fusion partners.
UniProt O75317: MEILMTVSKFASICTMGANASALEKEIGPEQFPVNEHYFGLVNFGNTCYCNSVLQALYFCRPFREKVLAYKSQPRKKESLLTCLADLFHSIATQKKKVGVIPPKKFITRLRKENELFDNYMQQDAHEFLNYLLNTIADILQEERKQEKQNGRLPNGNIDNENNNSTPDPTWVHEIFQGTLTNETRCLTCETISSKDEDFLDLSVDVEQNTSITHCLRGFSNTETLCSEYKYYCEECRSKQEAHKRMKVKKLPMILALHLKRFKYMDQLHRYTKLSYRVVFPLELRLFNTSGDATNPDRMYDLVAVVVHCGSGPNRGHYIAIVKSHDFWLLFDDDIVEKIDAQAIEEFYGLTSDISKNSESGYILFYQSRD
UniProt P10275: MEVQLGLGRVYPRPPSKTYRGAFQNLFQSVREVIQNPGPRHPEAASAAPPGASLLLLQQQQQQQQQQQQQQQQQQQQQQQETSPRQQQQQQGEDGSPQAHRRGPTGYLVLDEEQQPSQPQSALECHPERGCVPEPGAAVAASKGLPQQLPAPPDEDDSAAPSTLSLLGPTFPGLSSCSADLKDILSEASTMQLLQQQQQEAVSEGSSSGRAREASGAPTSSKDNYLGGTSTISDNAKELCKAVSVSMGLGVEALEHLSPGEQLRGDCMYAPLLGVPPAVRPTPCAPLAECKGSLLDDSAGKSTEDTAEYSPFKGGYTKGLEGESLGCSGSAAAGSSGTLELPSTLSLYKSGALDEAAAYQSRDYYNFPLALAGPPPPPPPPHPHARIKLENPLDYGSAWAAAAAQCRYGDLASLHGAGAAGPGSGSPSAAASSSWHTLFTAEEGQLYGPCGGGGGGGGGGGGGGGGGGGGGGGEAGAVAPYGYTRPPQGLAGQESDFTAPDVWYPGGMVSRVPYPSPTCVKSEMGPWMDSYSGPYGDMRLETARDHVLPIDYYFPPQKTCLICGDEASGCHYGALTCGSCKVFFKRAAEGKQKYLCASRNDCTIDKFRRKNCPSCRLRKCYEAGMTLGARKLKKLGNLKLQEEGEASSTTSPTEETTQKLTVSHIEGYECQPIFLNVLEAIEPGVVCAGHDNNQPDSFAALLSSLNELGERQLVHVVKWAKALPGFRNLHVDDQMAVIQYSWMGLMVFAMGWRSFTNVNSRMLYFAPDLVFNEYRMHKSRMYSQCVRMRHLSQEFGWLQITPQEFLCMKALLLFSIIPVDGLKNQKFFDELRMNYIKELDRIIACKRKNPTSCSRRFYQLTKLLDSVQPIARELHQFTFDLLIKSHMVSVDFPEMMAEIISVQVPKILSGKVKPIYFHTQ
UniProt Q8TAF3: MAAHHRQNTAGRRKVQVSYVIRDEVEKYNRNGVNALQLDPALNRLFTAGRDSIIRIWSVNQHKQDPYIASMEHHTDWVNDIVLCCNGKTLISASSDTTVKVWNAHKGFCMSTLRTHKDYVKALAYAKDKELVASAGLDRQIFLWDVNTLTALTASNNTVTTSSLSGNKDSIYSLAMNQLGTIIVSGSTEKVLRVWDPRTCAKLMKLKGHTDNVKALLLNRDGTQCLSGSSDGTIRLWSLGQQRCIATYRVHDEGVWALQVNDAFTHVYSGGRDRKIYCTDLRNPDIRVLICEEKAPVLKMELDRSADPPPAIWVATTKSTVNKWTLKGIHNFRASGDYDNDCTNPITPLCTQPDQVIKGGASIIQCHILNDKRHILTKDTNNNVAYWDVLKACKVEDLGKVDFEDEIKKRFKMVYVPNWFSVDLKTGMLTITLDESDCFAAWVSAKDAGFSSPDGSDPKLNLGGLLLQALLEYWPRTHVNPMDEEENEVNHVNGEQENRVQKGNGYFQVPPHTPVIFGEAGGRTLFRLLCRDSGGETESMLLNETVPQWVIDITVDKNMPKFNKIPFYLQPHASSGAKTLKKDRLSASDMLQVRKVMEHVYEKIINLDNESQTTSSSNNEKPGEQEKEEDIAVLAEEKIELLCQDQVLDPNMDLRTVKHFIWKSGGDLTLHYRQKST

The target in test [4] is T1, HA-Flag-WDR20. Briefly: co-IP; HEK293T cells transfected with pHA-Flag-WDR20, pFlag-Uaf-1 and pFlag-Usp12, 48 h; exogenous WDR20 immunoprecipitated with 1 ug anti-HA antibody; immunoblotting.

These are yes or no findings as the source states them, for the method shown. In cells and extracts the contact can be indirect. Some entries that bind do so weakly or less than the wild type. For some of these results: Tags and fused reporters may be left off the sequences shown.

In the case of “Endogenous Uaf-1 (from UniProt Q8TAF3 1-677)”, the binding entry in test [1] and in test [2] was “binds” in each case.
Consider “Endogenous Usp12 (from UniProt O75317 1-370) (enzyme)”, for which, in test [2], the binding entry is listed as “binds”.
Consider “Flag-AR (from UniProt P10275 1-920) (receptor)”, for which the binding result with HA-Flag-WDR20 [3] was “binds”.
Turning to “Flag-Usp12 (from UniProt O75317 1-370) (enzyme)”, the binding entry in the test with HA-Flag-WDR20 [4] is recorded as “binds”.

B1: Endogenous WDR20 (protein, UniProt Q8TBZ3 1-569)
chain: MATEGGGKEMNEIKTQFTTREGLYKLLPHSEYSRPNRVPFNSQGSNPVRVSFVNLNDQSGNGDRLCFNVGRELYFYIYKGVRKAADLSKPIDKRIYKGTQPTCHDFNHLTATAESVSLLVGFSAGQVQLIDPIKKETSKLFNEERLIDKSRVTCVKWVPGSESLFLVAHSSGNMYLYNVEHTCGTTAPHYQLLKQGESFAVHTCKSKSTRNPLLKWTVGEGALNEFAFSPDGKFLACVSQDGFLRVFNFDSVELHGTMKSYFGGLLCVCWSPDGKYIVTGGEDDLVTVWSFVDCRVIARGHGHKSWVSVVAFDPYTTSVEEGDPMEFSGSDEDFQDLLHFGRDRANSTQSRLSKRNSTDSRPVSVTYRFGSVGQDTQLCLWDLTEDILFPHQPLSRARTHTNVMNATSPPAGSNGNSVTTPGNSVPPPLPRSNSLPHSAVSNAGSKSSVMDGAIASGVSKFATLSLHDRKERHHEKDHKRNHSMGHISSKSSDKLNLVTKTKTDPAKTLGTPLCPRMEDVPLLEPLICKKIAHERLTVLIFLEDCIVTACQEGFICTWGRPGKVVSFNP
As for B1, the binding result in test [1] and in test [2] was “binds” each time.

Values taken from publication PMC4741960.
